In publication PMC12040169 (PLOS Biology, 2025):
Read-outs that look alike come from different tables or passages of the source. The list shows a part of the results.

Tested on: T1, CTL2-GFP (C. trachomatis L2/434/Bu, GFP-expressing)
T1 construct: L2/434/Bu, GFP-expressing
Set-up: species or system HeLa; Intracellular C. trachomatis growth in HeLa cells, bulk GFP fluorescence relative to DMSO
Settings: bulk GFP, single well, 28.5 h, 10 µM, inhibitor

Row | Compound | % of control remaining [%] | % of control remaining (Bulk GFP fluorescence) [%]
1 | Nc1nc(OCc2ccc3c(c2)OCO3)cnc1/C=C/c1ccccc1 [CBK145123] | 117.525 | –
2 | COc1ccc(C2c3c(-c4cc(C)c(C)cc4O)n[nH]c3C(=O)N2Cc2cccnc2)cc1OC (centres unmarked) [CBK268846] | 123.834 | –
3 | O=C(NCc1cccc(C(F)(F)F)c1)c1ccccc1-n1cccc1 [CBK149598] | 110.14 | –
4 | Nc1cccc(Oc2ccc(C(=O)O)c(C(=O)O)c2)c1 [CBK261180] | 110.027 | –
5 | Nc1cc2ccccc2c(-c2ccsc2)n1 [CBK085710] | 98.0796 | –
6 | COC(=O)c1ccc(-c2cc3ccccc3o2)nc1 [CBK149228] | – | 118.815
7 | Cc1cc(C)c2nc(-c3cccnc3)cc(C(=O)N3CCN(S(=O)(=O)c4ccc(F)cc4)CC3)c2c1 [CBK267726] | 134.565 | –
8 | C=CCN1C(=O)CC2(C1=O)C(=O)N(Cc1nc(-c3ccc(Cl)cc3)no1)c1ccc(OC)cc12 (centres unmarked) [CBK075692] | 103.741 | –
9 | COc1ccc(C)cc1S(=O)(=O)Nc1cc(OCCN2CCOCC2)c2occc2c1 [CBK067419C] | 88.4492 | –
10 | COc1ncccc1C(=O)NCC(CC(=O)O)c1ccc(Cl)cc1 (centres unmarked) [CBK287264] | 109.418 | –
11 | CCn1c(COc2c(C)cccc2C)nnc1SCC(=O)N1c2ccccc2Sc2ccccc21 [CBK268103] | 113.456 | –
12 | CC(=O)Nc1ccc(N2C(=O)c3ccc(S(=O)(=O)c4ccc5c(c4)C(=O)N(c4ccc(NC(C)=O)cc4)C5=O)cc3C2=O)cc1 [CBK262105] | 100 | –
13 | N#C/C(=C\Nc1ccc(S(N)(=O)=O)cc1)c1nc(-c2cccc([N+](=O)[O-])c2)cs1 [CBK262366] | 107.378 | –
14 | CCn1c(C)nc2cc(NC(=O)Cc3c(C)noc3C)ccc21 [CBK281834] | 115.213 | –
15 | COc1cc2c(cc1OC)CN(S(=O)(=O)c1cc(C(=O)O)ccc1Cl)CC2 [CBK296923] | 165.945 | –
16 | CC(C)(CO)NC(=O)COc1ccc(Cl)cc1 [CBK261833] | 106.631 | –
17 | CC(C)N1CC(C(=O)N(C)C)C2(CCc3ccccc3C2O)C1 (centres unmarked) [CBK286305] | 136.917 | –
18 | O=C(NCc1ccsc1)N1CCCN(Cc2ccc(Cl)cc2)CC1 [CBK305450] | 115.538 | –
19 | Cc1ccc(C2=CCN(CC(=O)Nc3ccccn3)CC2)o1 [CBK283634] | 113.716 | –
20 | Cc1cccn2cc(C(=O)NCCCn3cccn3)nc12 [CBK281749] | 159.008 | –
21 | OC(COc1ccc(-c2ccccc2)cc1)CN1CCN(Cc2ccccc2)CC1 (centres unmarked) [CBK074855C] | 109.57 | –
22 | CCc1cc(CNS(=O)(=O)Cc2cccc(F)c2)on1 [CBK283061] | 117.172 | –
23 | Cc1nn(C)c(C)c1CN(C)C(=O)C(C)Cn1cc(Cl)cn1 (centres unmarked) [CBK282187] | 124.966 | –
24 | CCCc1nnc(SC(C)C(=O)N2CCCc3ccccc32)[nH]1 (centres unmarked) [CBK306480] | 92.1204 | –
25 | COc1ccc(CCNC(=O)CN2CCCC2Cn2cncn2)cc1 (centres unmarked) [CBK304567] | 104.608 | –
26 | COC(=O)[C@@H]1Cc2ncn(C(C)C)c2CN1C(=O)CC(C)(C)C [CBK288988] | 126.562 | –

An excerpt of these results, as tab-separated lines.
Row	Compound	% of control remaining [%]	% of control remaining (Bulk GFP fluorescence) [%]
3	O=C(NCc1cccc(C(F)(F)F)c1)c1ccccc1-n1cccc1 [CBK149598]	110.14	–
4	Nc1cccc(Oc2ccc(C(=O)O)c(C(=O)O)c2)c1 [CBK261180]	110.027	–
5	Nc1cc2ccccc2c(-c2ccsc2)n1 [CBK085710]	98.0796	–
6	COC(=O)c1ccc(-c2cc3ccccc3o2)nc1 [CBK149228]	–	118.815
7	Cc1cc(C)c2nc(-c3cccnc3)cc(C(=O)N3CCN(S(=O)(=O)c4ccc(F)cc4)CC3)c2c1 [CBK267726]	134.565	–
8	C=CCN1C(=O)CC2(C1=O)C(=O)N(Cc1nc(-c3ccc(Cl)cc3)no1)c1ccc(OC)cc12 (centres unmarked) [CBK075692]	103.741	–
9	COc1ccc(C)cc1S(=O)(=O)Nc1cc(OCCN2CCOCC2)c2occc2c1 [CBK067419C]	88.4492	–
10	COc1ncccc1C(=O)NCC(CC(=O)O)c1ccc(Cl)cc1 (centres unmarked) [CBK287264]	109.418	–
11	CCn1c(COc2c(C)cccc2C)nnc1SCC(=O)N1c2ccccc2Sc2ccccc21 [CBK268103]	113.456	–
12	CC(=O)Nc1ccc(N2C(=O)c3ccc(S(=O)(=O)c4ccc5c(c4)C(=O)N(c4ccc(NC(C)=O)cc4)C5=O)cc3C2=O)cc1 [CBK262105]	100	–
13	N#C/C(=C\Nc1ccc(S(N)(=O)=O)cc1)c1nc(-c2cccc([N+](=O)[O-])c2)cs1 [CBK262366]	107.378	–
14	CCn1c(C)nc2cc(NC(=O)Cc3c(C)noc3C)ccc21 [CBK281834]	115.213	–
15	COc1cc2c(cc1OC)CN(S(=O)(=O)c1cc(C(=O)O)ccc1Cl)CC2 [CBK296923]	165.945	–
16	CC(C)(CO)NC(=O)COc1ccc(Cl)cc1 [CBK261833]	106.631	–
17	CC(C)N1CC(C(=O)N(C)C)C2(CCc3ccccc3C2O)C1 (centres unmarked) [CBK286305]	136.917	–
18	O=C(NCc1ccsc1)N1CCCN(Cc2ccc(Cl)cc2)CC1 [CBK305450]	115.538	–
19	Cc1ccc(C2=CCN(CC(=O)Nc3ccccn3)CC2)o1 [CBK283634]	113.716	–
20	Cc1cccn2cc(C(=O)NCCCn3cccn3)nc12 [CBK281749]	159.008	–
21	OC(COc1ccc(-c2ccccc2)cc1)CN1CCN(Cc2ccccc2)CC1 (centres unmarked) [CBK074855C]	109.57	–
22	CCc1cc(CNS(=O)(=O)Cc2cccc(F)c2)on1 [CBK283061]	117.172	–
23	Cc1nn(C)c(C)c1CN(C)C(=O)C(C)Cn1cc(Cl)cn1 (centres unmarked) [CBK282187]	124.966	–
24	CCCc1nnc(SC(C)C(=O)N2CCCc3ccccc32)[nH]1 (centres unmarked) [CBK306480]	92.1204	–
25	COc1ccc(CCNC(=O)CN2CCCC2Cn2cncn2)cc1 (centres unmarked) [CBK304567]	104.608	–
26	COC(=O)[C@@H]1Cc2ncn(C(C)C)c2CN1C(=O)CC(C)(C)C [CBK288988]	126.562	–

Remaining list, next part.

Row | Compound | % of control remaining [%] | % of control remaining (Bulk GFP fluorescence) [%]
27 | O=C(Cn1ncc2cccn2c1=O)OCC(F)(F)F [CBK283554] | 109.539 | –
28 | Cc1oc(-c2ccccc2)cc1C(=O)Nc1cc2ccccc2c(N2CCNCC2)n1 [CBK038938T] | 93.1206 | –
29 | Cc1ccc(-c2csc(NC(=O)CN3C(=O)CCC3=O)n2)c(C)c1 [CBK287348] | 148.672 | –
30 | CC(N(C)CC(=O)NCc1ccc(OCC(N)=O)cc1)C(C)(C)C (centres unmarked) [CBK306338] | 138.648 | –
31 | CC(C)[C@@H](CO)Nc1nc(-c2cc(C(F)(F)F)cc(C(F)(F)F)c2)cn2ccnc12 [CBK037496] | 80.2982 | –
32 | OC(COCc1ccc(Cl)cc1)CN1CCN(c2cccc(Cl)c2)CC1 (centres unmarked) [CBK278315C] | 100 | –
33 | CC1(C)Cc2nc(N3CCOCC3)ncc2C(NC(=O)C2CCC2)C1 (centres unmarked) [CBK306943] | 136.023 | –
34 | CCOC(=O)N1CCN(CC(=O)Nc2cc3c(cc2C(C)=O)OCO3)CC1 [CBK266163] | 148.858 | –
35 | O=C1CCCN1CP(=O)(O)CN1CCCCC1 [CBK262302] | 128.681 | –
36 | COc1ccc(Nc2cc(Cl)ccc2C(=O)Nc2ccncc2)cn1 [CBK107434] | 77.1614 | –
37 | O=C(NCc1cccnc1)c1ccc(-c2ccoc2)nc1 [CBK156275] | 153.065 | –
38 | CCCc1c(C(=O)NCCCN(C)C)cnn1-c1cc(Cl)cc(Cl)c1 [CBK107376] | 148.662 | –
39 | COc1cccc(NC(=O)c2sc(N)nc2-c2ccccc2)c1 [CBK072023] | 122.645 | –
40 | O=C(Nc1nnc(C(F)(F)F)s1)c1cc(Cl)ccc1Cl [CBK095734] | 77.3334 | –
41 | OC(CN1CCC2(CC1)CC(O)c1ccccc1O2)c1ccc(-c2ccccc2)cc1 (centres unmarked) [CBK286347] | 89.5561 | –
42 | CCOc1nccnc1N1CCNCC1 [CBK001899G] | 117.795 | –
43 | O=C(NCCc1cccs1)Nc1ccc(Cl)c(C(F)(F)F)c1 [CBK043775] | 77.7628 | –
44 | CC1CCN(Cc2ccc(-c3cn(CC(=O)NCc4ccc(Br)cc4F)nn3)cc2)CC1 [CBK165756C] | 136.659 | –
45 | COc1ccc(CC(=O)N2CCC(c3cccc(Cc4cccc(F)c4)n3)CC2)cc1 [CBK286504] | 126.182 | –
46 | O=C(c1cc[nH]n1)N1CCC2(CC1)Nc1ccccc1-n1cccc12 [CBK283652] | 106.193 | –
47 | Cc1cccn2c(CN3CCC(O)CC3)c(C(=O)N3CCOCC3)nc12 [CBK306546] | 124.231 | –
48 | O=C(CN1CCN(Cc2ccc3c(c2)OCO3)CC1)Nc1ccc(SC(F)(F)F)cc1 [CBK074385] | 111.15 | –
49 | O=C1C2CCCCC2C(=O)N1CCCN1CCC(c2nc(-c3ccc(F)cc3)c3ccccn23)CC1 (centres unmarked) [CBK035972] | 100 | –
50 | CCCCCC1=NN(C(=O)OCC)C(O)(C(F)(F)F)C1 (centres unmarked) [CBK027739] | 141.559 | –
51 | O=C(O)c1cccc(N(CCO)CCO)c1 [CBK262419] | 117.517 | –
52 | FC(F)(F)Oc1cccc(-c2cn3ccnc3c(NCCc3ccccn3)n2)c1 [CBK038017] | 215.398 | –

Row | Compound | % of control remaining [%] | % of control remaining (Bulk GFP fluorescence) [%]
53 | CN(CCC1CCN(c2ccncc2)CC1)C(=O)c1cc2sccc2[nH]1 [CBK305468] | 123.376 | –
54 | CCc1nc2cccnc2n1CCNC(=O)Cc1cccs1 [CBK283639] | 112.772 | –
55 | COc1ccc([C@@]23CC[C@@H](C(=O)Nc4ccc(C(F)(F)F)cn4)C[C@@H]2N(C)CC3)cc1OC [CBK046310T] | 113.293 | –
56 | CCOC(=O)C1(C2CCCCC2)CCN(C(=O)c2ccc(OC(F)(F)F)cc2)CC1 [CBK136921] | 99.0205 | –
57 | CCOc1ccc(N)cc1S(N)(=O)=O [CBK010112] | 109.763 | –
58 | CN(Cc1ccccc1)C(=O)c1c[nH]nc1C1CCCN(CC2CCCCC2)C1 (centres unmarked) [CBK286489] | 116.227 | –
59 | COc1ccc2c(c1)c(CN1CCCN(S(=O)(=O)c3ccc(-c4ccccc4)cc3)CC1)cn2C [CBK063125] | 121.016 | –
60 | O=C(c1ccc2[nH]ccc2c1)N1CCCC1 [CBK149074] | 91.7953 | –
61 | CCOc1ccc(Cl)cc1CN(C)C(=O)NCC(c1ccco1)N(C)C (centres unmarked) [CBK307013] | 130.8 | –
62 | CC(=O)c1ccc(-c2nc(NC(=O)CC#N)cnc2-c2ccc(F)c(Cl)c2)s1 [CBK036841] | 97.3546 | –
63 | O=C(Nc1c[nH]c(=O)[nH]c1=O)c1ccc(Oc2ccc(C(=O)Nc3c[nH]c(=O)[nH]c3=O)cc2)cc1 [CBK261184] | 99.6085 | –
64 | COc1ccc(C(NC(=O)c2ccc(N3C(=O)CCC3=O)cc2)c2ccccc2)cc1 (centres unmarked) [CBK285737] | 121.048 | –
65 | NC(=O)CCN(CCC(N)=O)S(=O)(=O)c1ccc(N)cc1 [CBK262134] | 109.985 | –
66 | CN1CCN(C(=O)COc2ccc(S(=O)(=O)Nc3ccc(Cl)cc3)cc2)CC1 [CBK268248] | 124.635 | –
67 | CC(CNC(=O)COc1ccc2ccccc2c1Br)CN(C)C (centres unmarked) [CBK267369] | 158.049 | –
68 | N=c1n(CCCOc2ccc(Br)cc2)c2ccccc2n1CC(N)=O [CBK268786C] | 87.1677 | –
69 | CCOC(=O)c1cnn(C2CCCN(Cc3cc[nH]n3)C2)c1 (centres unmarked) [CBK305125] | 132.568 | –
70 | Nc1ncnc(NCCc2ccc(Cl)cc2)c1[N+](=O)[O-] [CBK267351] | 171.003 | –
71 | O=C(CCc1ccccc1)Nc1cccc2nsnc12 [CBK265680] | 100 | –
72 | O=C(O)c1ccc(NS(=O)(=O)c2ccc(Cl)cc2)cc1O [CBK200023] | 111.947 | –
73 | O=S(=O)(NCCc1csc(-c2cccnc2)n1)c1cccnc1 [CBK287546] | 100.512 | –
74 | Cc1ccc(C)c(NC(=O)CCc2c(C)nn3cnnc3c2C)c1 [CBK304358] | 102.038 | –
75 | Cc1ccc(S(=O)(=O)N2C(=O)CCC2C(=O)O/N=C(\N)c2cccnc2)cc1 (centres unmarked) [CBK266864] | 125.77 | –
76 | CC1(C)Cc2c(ccc3ccccc23)C(NC(Cc2c[nH]c3ccccc23)C(=O)O)=N1 (centres unmarked) [CBK262569] | 111.152 | –
77 | COC(=O)c1sccc1NS(=O)(=O)c1ccc(C(F)(F)F)cc1[N+](=O)[O-] [CBK004510] | 119.333 | –
